Binding data for 1 substance are collected here from publication PMC10584130.

By UniProt entry, the sequences of proteins in these tests, tags left out.
UniProt P32917: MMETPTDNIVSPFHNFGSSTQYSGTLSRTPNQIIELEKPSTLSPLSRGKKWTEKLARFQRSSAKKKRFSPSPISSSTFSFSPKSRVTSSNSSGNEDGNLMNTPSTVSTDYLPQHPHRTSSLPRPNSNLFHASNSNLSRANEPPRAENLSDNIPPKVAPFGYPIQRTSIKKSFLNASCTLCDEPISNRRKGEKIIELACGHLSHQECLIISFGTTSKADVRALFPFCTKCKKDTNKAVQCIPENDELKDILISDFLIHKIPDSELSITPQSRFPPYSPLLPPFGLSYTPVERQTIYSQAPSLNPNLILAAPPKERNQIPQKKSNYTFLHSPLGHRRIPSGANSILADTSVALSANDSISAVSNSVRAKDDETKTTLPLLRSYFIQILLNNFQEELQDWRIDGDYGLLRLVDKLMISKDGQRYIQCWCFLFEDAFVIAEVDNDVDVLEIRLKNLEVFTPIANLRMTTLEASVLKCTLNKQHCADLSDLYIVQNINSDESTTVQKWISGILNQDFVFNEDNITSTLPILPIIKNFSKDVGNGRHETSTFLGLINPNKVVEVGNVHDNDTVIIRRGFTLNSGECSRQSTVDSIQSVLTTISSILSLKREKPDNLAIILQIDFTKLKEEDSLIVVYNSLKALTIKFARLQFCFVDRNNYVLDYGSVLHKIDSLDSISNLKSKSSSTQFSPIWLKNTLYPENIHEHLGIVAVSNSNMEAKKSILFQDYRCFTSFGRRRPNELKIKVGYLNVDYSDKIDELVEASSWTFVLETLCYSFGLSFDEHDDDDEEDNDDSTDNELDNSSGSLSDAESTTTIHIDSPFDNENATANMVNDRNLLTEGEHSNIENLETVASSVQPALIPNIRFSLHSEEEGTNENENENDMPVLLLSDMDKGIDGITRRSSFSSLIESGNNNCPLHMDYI
UniProt P10591: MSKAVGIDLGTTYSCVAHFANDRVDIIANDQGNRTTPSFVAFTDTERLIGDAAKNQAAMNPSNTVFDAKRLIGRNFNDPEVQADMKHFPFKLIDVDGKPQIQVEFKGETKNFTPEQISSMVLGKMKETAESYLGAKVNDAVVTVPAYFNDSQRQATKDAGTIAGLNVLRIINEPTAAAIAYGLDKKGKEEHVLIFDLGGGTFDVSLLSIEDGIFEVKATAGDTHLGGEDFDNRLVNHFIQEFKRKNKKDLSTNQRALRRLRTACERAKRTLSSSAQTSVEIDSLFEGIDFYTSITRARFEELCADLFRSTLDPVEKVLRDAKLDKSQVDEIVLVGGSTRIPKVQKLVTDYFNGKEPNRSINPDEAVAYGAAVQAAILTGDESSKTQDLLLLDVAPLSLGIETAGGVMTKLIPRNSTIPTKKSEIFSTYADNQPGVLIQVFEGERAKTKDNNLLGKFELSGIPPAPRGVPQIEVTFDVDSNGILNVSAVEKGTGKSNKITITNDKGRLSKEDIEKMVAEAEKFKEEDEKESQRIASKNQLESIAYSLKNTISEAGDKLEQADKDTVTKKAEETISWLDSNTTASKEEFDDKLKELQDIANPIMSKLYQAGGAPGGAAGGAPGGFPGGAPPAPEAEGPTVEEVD

The test addresses Ste5-Myc9 (S. cerevisiae) (UniProt P32917). The test can be described thus: co-IP; whole cell extracts of EY1775 co-expressing the tagged proteins; IP with 9E10 (Myc) or anti-GFP polyclonal antibodies, immunoblot; modified H buffer with 200 mM NaCl, immunoprecipitation buffer 150 mM NaCl (results say 200 mM NaCl).

No constants are given. Whether binding was seen depends on the method and setting. In cells and extracts the contact can be indirect. Some binding calls cover weakened binding; strength is not graded here.

As for Ssa1-GFP (from UniProt P10591 1-642), the binding entry is given as “binds”.
